Earlier results on 13 sequences are cited in paper PMC12990809.

By UniProt entry, the sequences of proteins in these tests, tags left out. Chains listed by the source or under a name are the forms on record and can include a tag or linker.
UniProt Q9NFU0, other isoform, or with tags, fused parts or gaps: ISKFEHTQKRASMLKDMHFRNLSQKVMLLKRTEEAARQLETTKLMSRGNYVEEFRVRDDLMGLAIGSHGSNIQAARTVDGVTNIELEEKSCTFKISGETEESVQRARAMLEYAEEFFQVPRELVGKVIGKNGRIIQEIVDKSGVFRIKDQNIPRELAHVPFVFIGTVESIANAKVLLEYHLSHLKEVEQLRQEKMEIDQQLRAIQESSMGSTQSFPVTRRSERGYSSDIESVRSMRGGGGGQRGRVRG

Whether high values mean tight binding is not given here for every scale. For some of these results: Tags and fusion partners may be left off the protein sequences shown.

Holding throughout (test): pull-down
Series [1] addresses T1, ANIA_04546 (Aspergillus nidulans) (UniProt Q5B4I4).
T1 sequence: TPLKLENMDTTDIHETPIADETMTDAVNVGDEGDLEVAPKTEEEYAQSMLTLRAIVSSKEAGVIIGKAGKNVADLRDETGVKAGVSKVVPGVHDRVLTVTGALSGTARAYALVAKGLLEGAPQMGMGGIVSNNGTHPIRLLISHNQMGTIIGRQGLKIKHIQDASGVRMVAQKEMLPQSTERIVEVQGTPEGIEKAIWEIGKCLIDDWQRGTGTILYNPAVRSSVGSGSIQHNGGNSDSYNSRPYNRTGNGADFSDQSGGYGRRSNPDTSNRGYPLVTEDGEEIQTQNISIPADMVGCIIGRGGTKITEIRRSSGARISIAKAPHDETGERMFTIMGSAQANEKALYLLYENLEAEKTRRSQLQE
To be noted: 20 nM protein, 1.5 uM RNA pool; 20 mM HEPES pH 7.8, 70 mM KCl, 10 mM NaCl, 10% glycerol, 2 mM DTT, 0.1 ug/uL BSA; 30 min, 4 C; purified recombinant protein; residues 178-542; protein details: N-terminal GST (kept); only the motif is given; cited from earlier work.

Series [2] has as its target T2, snRNP-U1-70K (Drosophila melanogaster) (UniProt P17133).
T2 sequence: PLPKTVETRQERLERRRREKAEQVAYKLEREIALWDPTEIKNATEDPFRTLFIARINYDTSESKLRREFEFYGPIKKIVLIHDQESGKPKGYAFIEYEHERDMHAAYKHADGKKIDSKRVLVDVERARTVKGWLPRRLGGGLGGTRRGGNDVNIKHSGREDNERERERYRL
To be noted: 20 nM protein, 1.5 uM RNA pool; 20 mM HEPES pH 7.8, 70 mM KCl, 10 mM NaCl, 10% glycerol, 2 mM DTT, 0.1 ug/uL BSA; 30 min, 4 C; purified recombinant protein; residues 54-224; protein details: N-terminal GST (kept); only the motif is given; cited from earlier work.

Series [3] addresses T3, Rox8 (Drosophila melanogaster) (UniProt B6IDM4).
T3 sequence: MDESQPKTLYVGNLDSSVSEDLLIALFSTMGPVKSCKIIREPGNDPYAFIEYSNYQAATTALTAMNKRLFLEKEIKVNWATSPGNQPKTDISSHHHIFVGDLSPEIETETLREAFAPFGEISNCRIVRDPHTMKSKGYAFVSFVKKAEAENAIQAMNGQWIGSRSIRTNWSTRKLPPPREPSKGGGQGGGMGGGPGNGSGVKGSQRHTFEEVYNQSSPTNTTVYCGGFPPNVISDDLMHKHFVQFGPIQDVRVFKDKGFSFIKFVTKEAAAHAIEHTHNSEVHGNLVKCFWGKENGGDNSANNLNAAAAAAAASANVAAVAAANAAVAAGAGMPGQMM
The note with it: 20 nM protein, 1.5 uM RNA pool; 20 mM HEPES pH 7.8, 70 mM KCl, 10 mM NaCl, 10% glycerol, 2 mM DTT, 0.1 ug/uL BSA; 30 min, 4 C; purified recombinant protein; residues 1-338; protein details: N-terminal GST (kept); only the motif is given; cited from earlier work.

Series [4] concerns the target T4, RBM6 (Homo sapiens) (UniProt P78332).
T4 sequence: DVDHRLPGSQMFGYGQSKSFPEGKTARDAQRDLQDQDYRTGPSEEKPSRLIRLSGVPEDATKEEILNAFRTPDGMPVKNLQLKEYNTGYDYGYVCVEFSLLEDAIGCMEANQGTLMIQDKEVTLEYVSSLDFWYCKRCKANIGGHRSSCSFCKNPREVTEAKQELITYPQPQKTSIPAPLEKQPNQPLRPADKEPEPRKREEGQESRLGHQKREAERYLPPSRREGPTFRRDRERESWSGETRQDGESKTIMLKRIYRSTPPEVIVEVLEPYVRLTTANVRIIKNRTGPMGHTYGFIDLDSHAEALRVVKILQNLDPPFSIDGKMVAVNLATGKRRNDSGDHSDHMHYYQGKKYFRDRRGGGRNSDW
To be noted: 20 nM protein, 1.5 uM RNA pool; 20 mM HEPES pH 7.8, 70 mM KCl, 10 mM NaCl, 10% glycerol, 2 mM DTT, 0.1 ug/uL BSA; 30 min, 4 C; purified recombinant protein; residues 408-774; protein details: N-terminal GST (kept); only the motif is given; cited from earlier work.

The target in series [5] is T5, rbm42 (Xenopus tropicalis) (UniProt Q66KL9).
T5 sequence: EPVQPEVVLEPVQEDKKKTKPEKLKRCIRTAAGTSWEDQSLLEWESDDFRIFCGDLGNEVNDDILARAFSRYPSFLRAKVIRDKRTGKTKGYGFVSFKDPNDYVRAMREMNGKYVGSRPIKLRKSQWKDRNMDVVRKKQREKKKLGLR
The note with it: 20 nM protein, 1.5 uM RNA pool; 20 mM HEPES pH 7.8, 70 mM KCl, 10 mM NaCl, 10% glycerol, 2 mM DTT, 0.1 ug/uL BSA; 30 min, 4 C; purified recombinant protein; residues 245-392; protein details: N-terminal GST (kept); only the motif is given; cited from earlier work.

For series [6], the target named is T6, ENOX1 (Homo sapiens) (UniProt Q8TC92).
T6 sequence: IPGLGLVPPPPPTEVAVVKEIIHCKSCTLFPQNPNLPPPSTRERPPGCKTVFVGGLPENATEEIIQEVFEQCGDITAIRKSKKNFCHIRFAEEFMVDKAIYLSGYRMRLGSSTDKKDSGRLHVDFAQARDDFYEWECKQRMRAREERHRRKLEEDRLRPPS
The note with it: 20 nM protein, 1.5 uM RNA pool; 20 mM HEPES pH 7.8, 70 mM KCl, 10 mM NaCl, 10% glycerol, 2 mM DTT, 0.1 ug/uL BSA; 30 min, 4 C; purified recombinant protein; residues 94-254; protein details: N-terminal GST (kept); only the motif is given; cited from earlier work.

Series [7] concerns the target T7, CG7903 (Drosophila melanogaster) (UniProt Q8SYB8).
T7 sequence: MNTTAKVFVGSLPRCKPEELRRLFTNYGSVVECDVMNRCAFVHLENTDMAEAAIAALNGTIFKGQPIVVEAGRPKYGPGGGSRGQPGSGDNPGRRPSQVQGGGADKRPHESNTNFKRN
To be noted: 20 nM protein, 1.5 uM RNA pool; 20 mM HEPES pH 7.8, 70 mM KCl, 10 mM NaCl, 10% glycerol, 2 mM DTT, 0.1 ug/uL BSA; 30 min, 4 C; purified recombinant protein; residues 1-118; protein details: N-terminal GST (kept); only the motif is given; cited from earlier work.

Series [8] deals with T8, FUS (Homo sapiens) (UniProt P35637).
T8 sequence: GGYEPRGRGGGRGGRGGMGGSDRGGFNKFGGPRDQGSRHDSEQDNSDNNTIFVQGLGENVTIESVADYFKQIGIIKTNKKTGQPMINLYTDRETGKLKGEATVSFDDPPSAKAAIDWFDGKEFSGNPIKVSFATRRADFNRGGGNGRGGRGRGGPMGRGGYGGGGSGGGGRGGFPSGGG
The note with it: 20 nM protein, 1.5 uM RNA pool; 20 mM HEPES pH 7.8, 70 mM KCl, 10 mM NaCl, 10% glycerol, 2 mM DTT, 0.1 ug/uL BSA; 30 min, 4 C; purified recombinant protein; residues 237-415; protein details: N-terminal GST (kept); only the motif is given; cited from earlier work.

Series [9] addresses Fmr1 (Drosophila melanogaster) (UniProt Q9NFU0). The note with it: 20 nM protein, 1.5 uM RNA pool; 20 mM HEPES pH 7.8, 70 mM KCl, 10 mM NaCl, 10% glycerol, 2 mM DTT, 0.1 ug/uL BSA; 30 min, 4 C; purified recombinant protein; residues 173-420; protein details: N-terminal GST (kept); only the motif is given; cited from earlier work.
The target of series [10] is FMR1 (Homo sapiens) (UniProt Q06787). The note with it: 20 nM protein, 1.5 uM RNA pool; 20 mM HEPES pH 7.8, 70 mM KCl, 10 mM NaCl, 10% glycerol, 2 mM DTT, 0.1 ug/uL BSA; 30 min, 4 C; purified recombinant protein; residues 170-446; protein details: N-terminal GST (kept); only the motif is given; cited from earlier work.
Series [11] deals with T9, mod (Drosophila melanogaster) (UniProt P13469).
T9 sequence: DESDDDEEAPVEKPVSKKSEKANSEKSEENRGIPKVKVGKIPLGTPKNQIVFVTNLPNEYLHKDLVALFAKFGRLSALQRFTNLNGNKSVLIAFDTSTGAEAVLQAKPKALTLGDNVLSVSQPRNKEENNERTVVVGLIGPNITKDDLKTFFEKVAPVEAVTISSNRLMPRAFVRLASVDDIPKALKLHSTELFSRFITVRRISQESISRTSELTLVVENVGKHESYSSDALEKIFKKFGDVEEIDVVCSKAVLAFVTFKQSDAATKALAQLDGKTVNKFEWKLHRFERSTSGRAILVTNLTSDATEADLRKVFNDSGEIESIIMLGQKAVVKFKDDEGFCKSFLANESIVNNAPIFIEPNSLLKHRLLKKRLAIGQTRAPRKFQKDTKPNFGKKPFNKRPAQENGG
To be noted: 20 nM protein, 1.5 uM RNA pool; 20 mM HEPES pH 7.8, 70 mM KCl, 10 mM NaCl, 10% glycerol, 2 mM DTT, 0.1 ug/uL BSA; 30 min, 4 C; purified recombinant protein; residues 127-533; protein details: N-terminal GST (kept); only the motif is given; cited from earlier work.

Series [12] deals with T10, ZNF638 (Homo sapiens) (UniProt Q14966).
T10 sequence: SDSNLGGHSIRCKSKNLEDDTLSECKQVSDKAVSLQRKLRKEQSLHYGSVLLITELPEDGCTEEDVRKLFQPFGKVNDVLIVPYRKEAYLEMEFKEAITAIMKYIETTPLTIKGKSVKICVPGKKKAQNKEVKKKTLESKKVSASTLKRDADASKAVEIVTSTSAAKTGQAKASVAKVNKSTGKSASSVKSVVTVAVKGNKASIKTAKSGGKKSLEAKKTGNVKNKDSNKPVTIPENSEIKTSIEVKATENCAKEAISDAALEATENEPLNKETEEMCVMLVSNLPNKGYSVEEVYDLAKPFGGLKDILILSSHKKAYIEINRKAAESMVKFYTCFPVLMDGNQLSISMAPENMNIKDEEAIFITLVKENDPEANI
To be noted: 20 nM protein, 1.5 uM RNA pool; 20 mM HEPES pH 7.8, 70 mM KCl, 10 mM NaCl, 10% glycerol, 2 mM DTT, 0.1 ug/uL BSA; 30 min, 4 C; purified recombinant protein; residues 628-1003; protein details: N-terminal GST (kept); only the motif is given; cited from earlier work.

For series [13], the target named is T11, pUf68 (Drosophila melanogaster) (UniProt Q8T6B9).
T11 sequence: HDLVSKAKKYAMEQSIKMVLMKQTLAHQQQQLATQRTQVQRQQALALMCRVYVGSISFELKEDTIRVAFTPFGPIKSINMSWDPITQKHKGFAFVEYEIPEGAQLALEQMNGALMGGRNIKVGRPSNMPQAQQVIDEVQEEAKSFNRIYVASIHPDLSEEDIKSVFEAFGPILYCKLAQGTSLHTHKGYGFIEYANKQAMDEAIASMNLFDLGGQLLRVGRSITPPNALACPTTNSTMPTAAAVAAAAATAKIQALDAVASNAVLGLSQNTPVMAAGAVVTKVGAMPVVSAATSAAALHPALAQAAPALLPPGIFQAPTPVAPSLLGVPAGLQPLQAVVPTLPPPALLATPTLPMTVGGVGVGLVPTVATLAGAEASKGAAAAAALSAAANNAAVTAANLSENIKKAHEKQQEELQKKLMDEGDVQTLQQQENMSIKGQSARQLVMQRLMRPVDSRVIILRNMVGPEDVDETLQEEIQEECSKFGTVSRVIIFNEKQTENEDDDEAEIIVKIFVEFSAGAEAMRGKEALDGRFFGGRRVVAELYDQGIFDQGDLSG
To be noted: 20 nM protein, 1.5 uM RNA pool; 20 mM HEPES pH 7.8, 70 mM KCl, 10 mM NaCl, 10% glycerol, 2 mM DTT, 0.1 ug/uL BSA; 30 min, 4 C; purified recombinant protein; residues 82-637; protein details: N-terminal GST (kept); only the motif is given; cited from earlier work.

In the case of ACCUAA [RNAcompete motif RNCMPT00265], the binding signal (z-score (mean of top ten 7-mers)) in series [1] was 3.92. With AGACCC [RNAcompete motif RNCMPT00143], the binding signal (z-score (mean of top ten 7-mers)) in [2] was 5.9. For the sequence AGACCC [RNAcompete motif RNCMPT00148], the binding signal (z-score (mean of top ten 7-mers)) in [3] was 4.99. Turning to AUCCA [RNAcompete motif RNCMPT00170], the binding signal (z-score (mean of top ten 7-mers)) in [4] was 5.86. In the case of CAACUAC [RNAcompete motif RNCMPT00282], the binding signal (z-score (mean of top ten 7-mers)) in series [5] is 5.65. Turning to CACCC [RNAcompete motif RNCMPT00149], the binding signal (z-score (mean of top ten 7-mers)) in series [6] was 4.7. As to CCACCC [RNAcompete motif RNCMPT00144], the binding signal (z-score (mean of top ten 7-mers)) in [7] is 5.73.

Take CGCGCC [RNAcompete motif RNCMPT00018]: the binding signal (z-score (mean of top ten 7-mers)) in [8] is 5.52. Regarding GACGGAC [RNAcompete motif RNCMPT00015], the binding signal (z-score (mean of top ten 7-mers)) in series [9] is 5.76. Regarding GGACAGG [RNAcompete motif RNCMPT00016], the binding signal (z-score (mean of top ten 7-mers)) in series [10] was 5.05. On to GUGGAAA [RNAcompete motif RNCMPT00140], for which the binding signal (z-score (mean of top ten 7-mers)) in [11] is 5.16.

Consider GUUCGU [RNAcompete motif RNCMPT00164], for which the binding signal (z-score (mean of top ten 7-mers)) in series [12] is 4.62. Consider UGAGUCG [RNAcompete motif RNCMPT00141], for which, in series [13], the binding signal (z-score (mean of top ten 7-mers)) was 3.76.
